# Out of some 210,000 compounds screened, about 5,900 (2.8%) were called active. Roughly 5% stayed inconclusive and do not appear here. Calls follow the shape of the dose curve; as a rule, active = well fitted activation curve with a large enough effect; inconclusive = small, poorly fitted or top-dose-only effect; inactive = no such curve, though single readings can be large or run the other way. Only a part is listed here, and it is no random draw. The source gives no active or inactive call for entries shown without one. The source holds several records for some structures; these can differ, active in one and inactive in another.
# Assay: qHTS Assay for Enhancers of SMN2 Splice Variant Expression; also: nearly all actives have a fitted effect of over 55% in size; as to activity change, positive = activation: % of control where 0% means no effect
# Details: HEK293 SMN2-luciferase splicing reporter, luminescence, 30-36 h; activity change, positive = activation: at 46.1 µM (top of the series) unless noted
# Excerpt: NIH Chemical Genomics Center [NCGC] NIH Molecular Libraries Probe Production centers Network [MLPCN] MLPCN Grant: R03 MH084179-01 Assay Submitter (PI): Elliot Androphy NCGC Assay Overview: Spinal muscular atrophy (SMA) is caused by insufficient levels of the survival motor neuron protein SMN. The SMN locus on chromosome 5q13 contains two inverted copies of SMN called SMN1 and SMN2 which are 99% identical at the amino acid level. SMN1 is a fully functional protein and SMN2 skips exon 7 90% of the time. Skipping of exon 7 produces non-functional protein product. 10% of the SMN2 protein includes exon 7 and is fully functional. In the SMA disease state, mutations in the SMN1 locus are the cause of the disease state. Because only 10% of SMN2 is of the fully functional form, it is not sufficient to overcome the deficiency produced by the loss of the SMN1 product. A therapy that either increase the amount of SMN2 product made or to increase the inclusion of exon 7 has been proposed for the treatment of SMA. We have designed an assay to identify small molecules that can increase the amount of functional SMN2 product by appending a luciferase reporter gene after the native SMN2 gene, such that inclusion of exon 7 in the expressed product places the luciferase sequence in frame, thus generating functional luciferase enzyme.
# NCGC Assay Protocol Summary: This screen utilizes a luciferase reporter gene assay, combining the promoter and splicing based cassettes in tandem with the major portion of the native SMN2 cDNA, and then transfected into HEK293 cells. Compounds that increase luciferase signal presumably enhance expression of the functional SMN2 splice variant. Passaging media contained DMEM w/ glutamax (+phenol red) 10% FCS, 1x pen/strep, 200 ug/ml hygro, 1x sodium pyruvate. Assay media contained DMEM w/ glutamax (-phenol red) 10% FCS, 1x pen strep, 1x pyruvate Sequence, Parameter, Value, Description (1) Cells, […], 2000 cells/well, 1536 TC treated White solid bottom plate (2) Time, 10-12 hours, 37C 5% CO2 (3) Compound, 23 nl, MLSMR Library (4) Control Compound, 23 nL, Sodium butyrate st 4.5mM (final) conc (5) Time, 30-36 hours, 37C 5% CO2 (6) Reagent, 3 ul, One Glo (TM) from Promega (7) Time, 5-15 minutes, Room temp (8) Detector, Viewlux: luminescent read, 60 second integration, high speed 2x binning Keywords: Spinal muscular atrophy, SMA, SMN2, high throughput screening, MLSMR, MLPCN, NIH Roadmap, qHTS and NCGC
# Potency is read from the fitted curve at half-maximal effect.
SMILES,"activity change, positive = activation",Potency
CCC(Sc1nc2ccccc2[nH]1)C(=O)Nc1cc(C)on1 (stereo not given),31.2%,–
O=C(NCc1ccco1)c1cc2c(s1)CCCCC2,–,active: 14.1 µM
CC1(C(=O)NCCN2CCOCC2)C=CCN1C(=O)c1ccccc1 (stereo not given),76.9%,–
CC(=O)Cc1nsc(Nc2ccc3c(c2)OCCO3)n1,–,active: 12.6 µM
CCn1c(C2CCN(S(=O)(=O)c3ccc(OC)cc3)CC2)n[nH]c1=S,-32.4%,–
CN(C)CC(C(=O)c1ccccc1)c1ccccc1 (stereo not given),inactive: -94.4%,–
Cc1cccc(NS(=O)(=O)c2ccc(Br)s2)n1,32.6%,–
Cc1ccc(Nc2c(-c3c[nH]c4ccccc34)nc3cc(C)ccn23)cc1,–,active: 14.1 µM
O=C(Nc1ccc(N2CCN(C(=O)c3ccccc3)CC2)c(Cl)c1)c1cccnc1,-35%,–
CCOc1ccc(C2C(C(=O)O)CCC(=O)N2C2CCCCC2)cc1 (stereo not given),inactive: 5.94%,–
Cc1ccc2nc(-c3ccc(NC(=O)CNC4CC4)cc3)sc2c1,–,active: 2.24 µM
CC(=O)NCC1=C(NC(C)=O)C2CC1C(C)(C)C2C (stereo not given),31.5%,–
COc1ccc(CC(=O)Nc2cccc(-c3nnc(-c4ccccc4)o3)c2)cc1OC,inactive: -120%,–
COc1ccc(NC(=S)NC(=O)c2ccccc2Cl)cc1,30.7%,–
Cc1ccc(S(=O)(=O)Nc2nc(C)c(C(=O)N/N=C/c3ccccc3)s2)cc1,inactive: -37.5%,–
CN1C(=O)/C(=C2/C=Cc3ccccc3N2CCCS(=O)(=O)O)SC1=S,-36%,–
CCc1nnc(NS(=O)(=O)c2ccc(N/C=C\C(=O)c3ccc(C)cc3)cc2)s1,inactive: 23.1%,–
Cc1cccc2c1NC(=O)/C2=C\C(=O)c1cccs1,inactive: -32.9%,–
CCCOC(=O)c1cccc(Nc2nc(-c3cccnc3)nc3ccccc23)c1,inactive: -79%,–
CCOC(=O)c1ccc(NS(=O)(=O)c2ccc3c(c2)CCCN3C(C)=O)cc1,-87.1%,–
CC1CCN(C(=O)Cn2cnc3c(cnn3C(C)(C)C)c2=O)CC1,–,active: 15.8 µM
O=C(C1CCCN(S(=O)(=O)c2cccs2)C1)N1CCc2ccccc2C1 (stereo not given),-39.1%,–
O=C(NCc1ccc(N2CCCC2=O)cc1)Nc1cccc(Cl)c1,-59.2%,–
CCOc1ccc(OCc2cccc(C(=O)O)c2)cc1,–,active: 0.0316 µM
COc1ccc(/C=C2\SC(=O)N(CCNC(=O)C3CC4C=CC3C4)C2=O)cc1 (stereo not given),–,active: 25.1 µM
CCN1CCN(CC(O)COc2ccc(Cl)cc2)CC1 (stereo not given),18.7%,–
CC1(C)CNC(=O)c2sc(NC(=O)CN3CCOCC3)nc2C1,12.8%,–
CCOC(=O)C1=C(C)NC2=C(C(=O)CC(C)(C)C2)C1c1ccc2c(c1)CCCN2C (stereo not given),49.6%,–

SMILES,"activity change, positive = activation",Potency
Cc1ccc(S(=O)(=O)c2nc(NC3CCS(=O)(=O)C3)sc2Cl)cc1 (stereo not given),-81.7%,–
COc1c(C)cccc1C(=O)Nc1ccc(CN2CCOCC2)cc1,–,active: 15.8 µM
COC(=O)COc1cc2ccccc2cc1C(=O)Nc1ccccc1,inactive: -31.3%,–
NC(=O)c1ccccc1NC(=O)Nc1cccc2ccccc12,inactive: -20.3%,–
COCCCn1c(C)nnc1-c1cnn(-c2ccccc2)c1N,35.9%,–
COc1ccccc1N1CCN(C(=O)C2CC=CCC2C(=O)O)CC1 (stereo not given),38.3%,–
Cc1ccc(S(=O)(=O)NC(C(=O)Oc2ccc3c(C(F)(F)F)cc(=O)oc3c2)c2ccccc2)cc1 (stereo not given),-53.1%,–
CC1=C(C(=O)Nc2ccccc2)C(c2ccncc2)C(C#N)=C(SCC(=O)NC(C)C)N1 (stereo not given),51.8%,–
C(=N\Nc1nc2ccccc2[nH]1)/c1ccccn1,-81.9%,–
CC(=O)c1cccc(OCC(=O)c2cc(C)n(-c3cc(C)on3)c2C)c1,inactive: -47%,–
CC(C)(C)c1ccc(C(=O)c2c[nH]c(C(=O)NCCCn3ccnc3)c2)cc1,inactive: -50.1%,–
O=C(Nc1ccc(Cc2ccncc2)cc1)c1ccc(S(=O)(=O)N2CCOCC2)cc1,-62.9%,–
CCOc1ccc(C(=O)N/N=C(\c2ccccc2)c2ccccn2)cc1,inactive: -63.4%,–
COc1ccc(NC(=O)CSC2CC(=O)N(c3ccc4c(c3)OCCO4)C2=O)cc1 (stereo not given),21.6%,–
O=C(/C=C/c1ccc(OCCCF)cc1)Nc1ccnc(-c2cccnc2)n1,inactive: -35.6%,–
CC(=O)c1ccc(NC(=O)C(C)N(C)CC(=O)Nc2ccc(N3CCOCC3)cc2)cc1 (stereo not given),-14.2%,–
COc1ccc(-c2nnc(SCC(=O)NCc3ccco3)n2C)cc1,31.6%,–
O=C(CC(Nc1ccccc1)C(=O)O)c1ccccc1 (stereo not given),–,active: 12.6 µM
Cc1c(C(=O)NNC(=S)Nc2cccc(Cl)c2)nnn1-c1ccccc1,inactive: 36.5%,–
COc1ccc(-c2cc(=O)c3cc(OC)ccc3o2)cc1,inactive: 392%,–
CCc1nnc(NC(=O)Cn2nnc(-c3ccccc3F)n2)s1,42.7%,–
O=C1CCN(S(=O)(=O)c2cccs2)c2ccc(C(F)(F)F)cc2N1,inactive: 20.1%,–
COc1ccc(C/C(N)=N/OC(=O)c2cccs2)cc1,-18.5%,–
Cc1cc(C)n2nc(SCc3nnc(SCc4ccccc4Cl)s3)nc2n1,inactive: -56.5%,–
COc1ncc2nc(-c3cc(F)cc(F)c3)c(=O)n(CCc3ccccc3)c2n1,inactive: -13.6%,–
COc1ccc(C)cc1N(CC(=O)Nc1cccc(N(C)S(C)(=O)=O)c1)S(C)(=O)=O,30.6%,–
O=C1c2ccccc2NC(c2ccccc2O)N1NS(=O)(=O)c1ccccc1 (stereo not given),-48.6%,–

# Not a retest: 3 of the compounds above.
SMILES,"activity change, positive = activation",Potency
O=C(NCc1ccco1)c1cc2c(s1)CCCCC2,–,active: 14.1 µM
CC1(C(=O)NCCN2CCOCC2)C=CCN1C(=O)c1ccccc1 (stereo not given),76.9%,–
CC(=O)Cc1nsc(Nc2ccc3c(c2)OCCO3)n1,–,active: 12.6 µM
